From patent US20170368132A1 (published 2017)
No constants are given. Whether binding was seen depends on the method and setting. For some of these results: Binding calls can cover weak binding; strength is not graded here.

Columns and labels:
Test in all cases: yeast two-hybrid, growth on -ADE -HIS
[1] = target: C. albicans Rad51 (C. albicans)
[2] = target: D. rerio Rad51 (D. rerio)
[3] = target: K. pastoris Rad51 (K. pastoris)
[4] = target: K. lactis Rad51 (K. lactis)

KRRRRRRRKRLGVRLRVSRML [compound 5 peptide sequence (SEQ ID NO.:5)]
binding [1]: binds
binding [2]: binds
binding [3]: binds
binding [4]: no binding
